Results as given in PubChem BioAssay AID1487 (National Center for Advancing Translational Sciences (NCATS), 2009).
Some of the results follow. These are further read-outs of the screen, such as a control signal, another cell line or another target. No call is given for them. Most of these compounds were active or inconclusive in the main read-out, so they are no random draw. Potencies come from curve fits of mixed quality, noted in brackets.

Assay: qHTS Assay for Modulators of Lamin A Splicing
Conditions: HeLa LMNA splicing GFP/RFP minigene ratio, 48 h
Outline: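 S3 HeLa cells stably expressing lamin A-EGFP splicing minigene plus DsRed2, 600 cells/well, 48 h compound exposure at 37C. Laser-scanning cytometry; analysed as GFP (500-530 nm)/RFP (575-640 nm) total intensity ratio; 0.5% DMSO vehicle.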

[1] = measured here: RFP viability control channel
[2] = measured here: GFP splicing reporter channel

Compound | AC50 [1] | AC50 [2]
COc1ccc(C(=O)Nc2ccc(SC(F)F)cc2)cc1 | 2.82 µM [rising, full curve, poor fit] | –
CC(=O)c1ccc(N2CCN(C(=O)C3CCCN(S(=O)(=O)c4cnc[nH]4)C3)CC2)cc1 (stereo not drawn) | 2.82 µM [falling, partial curve] | 3.55 µM [falling, single point]
O=C(Cc1ccc(Cl)cc1)N/N=C/c1cccs1 | – | 0.158 µM [rising, full curve, poor fit]
CN1CCN(C(=O)C(=O)Nc2c3c(nn2-c2ccc(F)cc2)CSC3)CC1 | 0.0355 µM [rising, full curve, poor fit] | 0.02 µM [rising, full curve, poor fit]
CCn1c(=O)cc(SCC(=O)Nc2ccc3c(c2)OCO3)c2ccccc21 | 39.8 µM [rising, partial curve, poor fit] | –
COc1cc(/C=C/C(=O)c2ccc(Cl)s2)cc(OC)c1O | 35.5 µM [falling, single point] | 22.4 µM [falling, single point]
COC(=O)c1ccc(NC(=O)c2c(NCc3ccc(C)o3)sc3c2CCCC3)cc1 | 15.8 µM [rising, single point] | –
Cc1nn(-c2ccccc2)c(C)c1/C=N/NC(=O)c1cc(-c2cccs2)[nH]n1 | 0.398 µM [rising, full curve] | –
CCOC(=O)N/N=C/c1ccc(OCCSc2ccc(Cl)cc2)c(OC)c1 | 10 µM [rising, partial curve] | –
CC(C)COP(=O)(OCC(C)C)C(Nc1ccccc1)c1ccc(F)cc1 (stereo not drawn) | 0.1 µM [rising, full curve, poor fit] | 3.55 µM [rising, full curve, poor fit]
COc1ccc(C2N(c3ccc(C)cc3)CCN2c2ccc(C)cc2)cc1O | 28.2 µM [falling, partial curve] | 35.5 µM [falling, single point]
COc1ccc(-c2nn(C)c3sc(C(=O)Nc4cccc(F)c4)cc23)cc1OC | 10 µM [rising, single point] | –
O=C(Nc1cc(Oc2ccc(Cl)cc2)cc([N+](=O)[O-])c1)c1ccco1 | 20 µM [rising, single point] | –
Cc1nnc(SCC(=O)Nc2cc(-c3cc(C)c(C)cc3C)nn2-c2ccccc2)s1 | 12.6 µM [rising, partial curve, poor fit] | 11.2 µM [rising, partial curve, poor fit]
Cc1ccc2cc3cc(C(=O)Nc4ccc(F)cc4Cl)oc3nc2c1 | 11.2 µM [falling, single point] | 12.6 µM [falling, partial curve]
CC(C)(C)NC(=O)C(c1cccs1)N(CC1CCCO1)C(=O)c1ccc(-c2ccccc2)[nH]1 (stereo not drawn) | 20 µM [rising, partial curve, poor fit] | –
Cc1ccccc1NC(=O)c1ccc(CN2CCc3ccccc3C2)cc1 | 17.8 µM [rising, partial curve, poor fit] | –
Cc1cc(C)n2nc(C(=O)N(C)C(c3ccccc3)c3ccccc3)nc2n1 | 1.12 µM [falling, partial curve] | –

Quoted at random: 2 entries already listed.
Compound | AC50 [1] | AC50 [2]
CC(=O)c1ccc(N2CCN(C(=O)C3CCCN(S(=O)(=O)c4cnc[nH]4)C3)CC2)cc1 (stereo not drawn) | 2.82 µM [falling, partial curve] | 3.55 µM [falling, single point]
Cc1nnc(SCC(=O)Nc2cc(-c3cc(C)c(C)cc3C)nn2-c2ccccc2)s1 | 12.6 µM [rising, partial curve, poor fit] | 11.2 µM [rising, partial curve, poor fit]

Following part.

Compound | AC50 [1] | AC50 [2]
Cc1ccccc1OCC(=O)OCc1cc(=O)n2ccsc2n1 | 4.47 µM [falling, single point] | 4.47 µM [falling, partial curve]
COc1ccccc1/C=C/CN1CCCC(CCC(=O)NCc2ccccc2F)C1 (stereo not drawn) | 12.6 µM [falling, partial curve, poor fit] | 12.6 µM [falling, partial curve, poor fit]
Cc1cccc(NC(=S)Nc2cccc(C(F)(F)F)c2)n1 | 5.01 µM [rising, single point] | –
CC(C)c1ccc(/C=C(\c2nc3ccccc3[nH]2)S(=O)(=O)c2ccccc2)cc1 | – | 35.5 µM [falling, single point]
CC(C)CNC(=O)COc1ccc(Sc2ccc(OCC(=O)NCC(C)C)cc2)cc1 | 7.08 µM [rising, full curve] | –
CCN(CC)CCN(C(=O)c1ccco1)c1nc2ccc(Cl)cc2s1 | – | 3.98 µM [falling, full curve]
Cc1ccc(/C=C/C2=NN(Cc3ccccc3Cl)C(=O)CC2)cc1 | 31.6 µM [rising, single point] | 31.6 µM [rising, single point]
CCCc1cc(=O)[nH]c(SCC(=O)Nc2nc(-c3ccccc3)cs2)n1 | – | 35.5 µM [falling, partial curve, poor fit]
Nc1ccn([C@H]2CC[C@@H](CO)O2)c(=O)n1 | 0.1 µM [rising, full curve, poor fit] | –
Fc1cccc(Cl)c1Cn1nnc2c(NCc3ccccn3)ncnc21 | 31.6 µM [rising, single point] | –
Cc1cccc(NC(=S)NC(NC(=O)OCc2ccccc2)C(Cl)(Cl)Cl)c1 (stereo not drawn) | 31.6 µM [rising, single point] | –
Cn1c(SCC(=O)N2c3ccccc3CCc3ccccc32)nnc1-c1ccc(O)cc1 | – | 0.631 µM [falling, partial curve, poor fit]
c1cncc(-c2noc(CC3CCCCC3)n2)c1 | – | 5.62 µM [falling, single point]
O=C(NN1CCOCC1)c1cc(-c2ccc(Br)cc2)nc2ccccc12 | 8.91 µM [rising, partial curve] | 5.01 µM [rising, partial curve, poor fit]
Cc1c(C(=O)NNC(=S)Nc2cccc(Cl)c2)nnn1-c1ccccc1 | 15.8 µM [rising, single point] | 14.1 µM [rising, single point]
CCC(CC)C(=O)Nc1cccc(C(=O)NC(C)(C)C)c1 | 0.0112 µM [falling, full curve, poor fit] | 0.01 µM [falling, full curve, poor fit]
CCOc1ccc(C(=O)N/N=C(\c2ccccc2)c2ccccn2)cc1 | 28.2 µM [rising, single point] | –
